Laboratory results: PubChem BioAssay AID652243 (Drosophila RNAi Screening Center, 2013)

Aim: 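Knock-downs that decrease or increase androgen receptor reporter signal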 (primary screen)
Cells: Drosophila S2R+ cells
Reagent: long dsRNA against Drosophila genes
Timing: 72 h (48 h, then 24 h hormone)
Challenge: synthetic androgen R1881 at 10 nM for 24 h
Measurement: 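Firefly light from an androgen-responsive reporter and Renilla control light per well, raw and unnormalised, for each of two replicates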
Reading the numbers: firefly reporter light: higher = more light from androgen-responsive reporter; Renilla control light: higher = more constitutive control signal (cell number, transfection)
Hit rule: 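Hit when the log firefly-to-Renilla ratio dropped or increased by a fixed fold versus the mean of GFP or LacZ controls across duplicate plates; lowering cut given as 1.5 and as 3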
Calls: active = hit: reporter lowered or raised; inactive = no hit
In all, the deposit lists about 24,000 reagents; below is a random part of those that have a named target and a result. Over the whole deposit, 246 (1%) are marked active. 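Plates not normalised; calls are printed but the firefly/Renilla ratio behind them is not deposited; fold cut for lowering reported inconsistently.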 Raw values are not corrected between plates. Reagents against one gene are numbered here. A plus sign joins genes that one reagent is predicted to hit. No sequences are given here. Not given: the amount of reagent.

| Target gene | reagent | firefly reporter light, replicate 1 | firefly reporter light, replicate 2 | Renilla control light, replicate 1 | Renilla control light, replicate 2 | call |
| --- | --- | --- | --- | --- | --- | --- |
| CG4004 | 1 | 97194 | 1.65e5 | 8.96e5 | 8.97e5 | inactive |
| CG4004 | 2 | 6.22e5 | 5.49e5 | 4.00e6 | 4.25e6 | inactive |
| CG4004 | 3 | 3.05e5 | 3.25e5 | 7.20e5 | 8.90e5 | inactive |
| Cht2 | 1 | 1.20e6 | 2.62e5 | 1.45e6 | 6.91e5 | inactive |
| Cht2 | 2 | 7.15e5 | 5.44e5 | 6.92e5 | 4.24e5 | inactive |
| GstE5 | 1 | 2.53e5 | 2.68e5 | 2.59e6 | 2.51e6 | inactive |
| CG4073 | 1 | 1.30e5 | 1.04e5 | 1.43e6 | 2.01e6 | inactive |
| alpha-Est2 | 1 | 1.15e5 | 1.55e5 | 2.77e6 | 2.51e6 | inactive |
| Ance-3 | 1 | 2.44e5 | 2.52e5 | 1.92e6 | 2.27e6 | inactive |
| Ance-3 | 2 | 1.96e5 | 1.93e5 | 1.26e6 | 1.38e6 | inactive |
| CG4467 | 1 | 1.98e5 | 1.97e5 | 2.94e6 | 2.39e6 | inactive |
| P32 | 1 | 8.44e5 | 7.93e5 | 6.00e5 | 6.43e5 | inactive |
| CG2685 | 1 | 1.39e5 | 1.71e5 | 2.17e6 | 2.59e6 | inactive |
| CG2685 | 2 | 3.51e5 | 2.74e5 | 8.63e5 | 8.03e5 | inactive |
| Chchd3 | 1 | 1.36e5 | 1.31e5 | 1.13e6 | 1.72e6 | inactive |
| Chchd3 | 2 | 2.76e5 | 1.94e5 | 6.91e5 | 3.91e5 | inactive |
| Gnf1 | 1 | 40544 | 53439 | 1.57e6 | 1.43e6 | inactive |
| Gnf1 | 2 | 1.71e5 | 2.05e5 | 6.04e5 | 6.45e5 | inactive |
| Cwc25 | 1 | 2.71e5 | 2.90e5 | 8.14e5 | 5.81e5 | inactive |
| CG15145 | 1 | 1.21e5 | 1.77e5 | 1.50e6 | 1.83e6 | inactive |
| CG15145 | 2 | 2.73e5 | 2.43e5 | 6.94e5 | 8.32e5 | inactive |
| CG10163 | 1 | 83849 | 1.61e5 | 1.03e6 | 1.35e6 | inactive |
| Sik2 | 1 | 3.39e5 | 3.76e5 | 4.13e6 | 3.74e6 | inactive |
| Sik2 | 2 | – | – | – | – | inactive |
| Sik2 | 3 | – | – | – | – | inactive |
| gfzf | 1 | 71089 | 67339 | 2.88e5 | 4.56e5 | inactive |
| gfzf | 2 | 1.07e6 | 9.89e5 | 2.48e6 | 1.43e6 | inactive |
| CG13160 | 1 | 4.30e5 | 4.60e5 | 1.27e6 | 1.03e6 | inactive |
| Cpr50Ca | 1 | 1.20e5 | 2.34e5 | 3.34e5 | 4.10e5 | inactive |
| Cpr50Ca | 2 | 63188 | 98578 | 1.51e6 | 1.51e6 | inactive |
| Cpr50Ca | 3 | 78533 | 85819 | 2.58e6 | 2.58e6 | inactive |
| msd1 | 1 | 86013 | 1.34e5 | 1.56e6 | 1.60e6 | inactive |
| Pp1-13C | 1 | 7.55e5 | 8.34e5 | 2.57e6 | 2.91e6 | inactive |
| Pp1-13C | 2 | 5.48e5 | 6.47e5 | 1.10e6 | 1.12e6 | inactive |
| Pp1-13C | 3 | 2.76e5 | 1.79e5 | 6.24e5 | 7.99e5 | inactive |
| CG7213 | 1 | 2.37e5 | 2.57e5 | 2.89e6 | 2.75e6 | inactive |
| CG40045 | 1 | 8.77e5 | 5.95e5 | 1.48e6 | 1.16e6 | inactive |
| mRpS9 | 1 | 4.23e5 | 2.70e5 | 5.39e5 | 6.02e5 | inactive |
| mRpS9 | 2 | 4.48e5 | 6.11e5 | 3.23e6 | 3.24e6 | inactive |

Reprinted from the listing (6 entries):
| Target gene | reagent | firefly reporter light, replicate 1 | firefly reporter light, replicate 2 | Renilla control light, replicate 1 | Renilla control light, replicate 2 | call |
| --- | --- | --- | --- | --- | --- | --- |
| Cpr50Ca | 2 | 63188 | 98578 | 1.51e6 | 1.51e6 | inactive |
| Cpr50Ca | 3 | 78533 | 85819 | 2.58e6 | 2.58e6 | inactive |
| msd1 | 1 | 86013 | 1.34e5 | 1.56e6 | 1.60e6 | inactive |
| Pp1-13C | 1 | 7.55e5 | 8.34e5 | 2.57e6 | 2.91e6 | inactive |
| Pp1-13C | 2 | 5.48e5 | 6.47e5 | 1.10e6 | 1.12e6 | inactive |
| Pp1-13C | 3 | 2.76e5 | 1.79e5 | 6.24e5 | 7.99e5 | inactive |

Further results:
| Target gene | reagent | firefly reporter light, replicate 1 | firefly reporter light, replicate 2 | Renilla control light, replicate 1 | Renilla control light, replicate 2 | call |
| --- | --- | --- | --- | --- | --- | --- |
| Gycalpha99B | 1 | 88682 | 76176 | 5.26e5 | 5.15e5 | inactive |
| Gycalpha99B | 2 | 5.59e5 | 4.91e5 | 5.14e5 | 5.63e5 | inactive |
| E(spl)mgamma-HLH | 1 | 1.81e5 | 1.76e5 | 2.14e6 | 1.99e6 | inactive |
| E(spl)mgamma-HLH | 2 | 3.03e5 | 3.32e5 | 4.15e5 | 4.00e5 | inactive |
| CG7691 | 1 | 1.04e5 | 1.27e5 | 1.40e6 | 1.73e6 | inactive |
| BuGZ | 1 | 4.72e5 | 6.18e5 | 1.41e6 | 1.43e6 | inactive |
| BuGZ | 2 | 1.86e5 | 1.59e5 | 2.07e6 | 2.03e6 | inactive |
| BuGZ | 3 | 8.97e5 | 7.73e5 | 8.26e5 | 6.32e5 | inactive |
| BuGZ | 4 | 5.82e5 | 4.42e5 | 1.43e6 | 1.51e6 | inactive |
| BuGZ | 5 | 6.75e5 | 6.52e5 | 1.47e6 | 1.39e6 | inactive |
| CG34135 + Nasp + CG11768 | 1 | 73603 | 63334 | 1.16e6 | 1.22e6 | inactive |
| CG34135 + Nasp + CG11768 | 2 | 7.70e5 | 8.45e5 | 1.73e6 | 2.05e6 | inactive |
| CG34135 + Nasp + CG11768 | 3 | 3.18e5 | 3.29e5 | 5.03e5 | 6.87e5 | inactive |
| CG34135 + Nasp + CG11768 | 4 | 7.76e5 | 8.24e5 | 1.29e6 | 1.29e6 | inactive |
| ACXC | 1 | 3.05e5 | 2.93e5 | 1.85e6 | 2.15e6 | inactive |
| Ir94d | 1 | 1.05e6 | 9.05e5 | 2.15e6 | 1.91e6 | inactive |
| CG8993 | 1 | 74453 | 65890 | 1.08e6 | 1.11e6 | inactive |
| CG8993 | 2 | 2.30e5 | 2.25e5 | 7.95e5 | 6.02e5 | inactive |
| l(2)dtl | 1 | 3.94e5 | 3.34e5 | 1.16e6 | 1.06e6 | inactive |
| l(2)dtl | 2 | 2.25e5 | 1.76e5 | 7.43e5 | 6.18e5 | inactive |
